Assay results: patent US20120258482A1, “PCNA […]” (INDIANA UNIVERSITY RESEARCH AND TECHNOLOGY CORPORATION, priority 2009, published 2012)

System: PCNA isoform in MCF7 cells (p53 wild-type)
Assay: 2D-PAGE anti-PCNA immunoblot after DOX exposure, MCF7
Assay type: cell-based, human
Settings: 5 μM DOX
Method: FIG. 7A is a Western blot analysis of p53 wild-type (MCF7) and p53-mutant (MDA-MB-468) breast carcinoma cell lines exposed to 5 μM DOX for the indicated times. Cell extracts (200 μg) were resolved by 2D-PAGE and immunoblotted with anti-PCNA antibodies. In FIG. 7B extracts from MCF7 cells (50 μg) treated with 5 μM DOX were separated by 12% SDS-PAGE and immunoblotted with anti-p21WAF1 antibodies. FIG. 7C is a Western blot analysis of glutathione-immobilized GST-p21 and GST-PIP (a.a. 139-160) fusion proteins incubated with untreated MCF7 cell extracts for 2 h at 4° C. and the pull-down fractions were resolved by 2D-PAGE and Western blotted for PCNA. PCNA isoforms were isolated from MCF7 extracts by incubation with PIP-affinity beads for ˜2 h and analyzed by 2D-PAGE using pH 4-7 IPG strips. Colloidal Coomassie stained spots (See FIG. 7D) were excised from the gel, trypsin digested, and sequenced by LC-MS/MS.
2D-PAGE and mass spectrometry. Isoelectric focusing was performed using IPG strips and an IEF cell (BioRad) as previously described (Hoelz, D. J. et al. Proteomics 6, 4808-4816, 2006). […] Anti-PCNA (PC10) antibodies were obtained from Santa Cruz Biotech and anti-WAF1 (DF10) were from EMD Biosciences.
Although the description of Arm1 identifies a novel posttranslational mechanism in eukaryotic cells, its biological significance was still unclear. […]

COc1cccc2c1C(=O)c1c(O)c3c(c(O)c1C2=O)C[C@@](O)(C(=O)CO)C[C@@H]3O[C@H]1C[C@H](N)[C@H](O)[C@H](C)O1 [DOX, doxorubicin]
time of appearance of the PCNA isoform after exposure: 4 h | duration of the PCNA isoform (data not shown): ~15 m
